Results taken from paper PMC10090139.
No constants are given. Whether binding was seen depends on the method and setting. Binding seen in cells or lysates may run through a third protein. Some results given as binding are weak or reduced against the parent protein; the word gives no strength. Where a sequence is shown, tags or fusion partners need not be part of it.

Sequences of proteins named here, by UniProt entry; tags and fusion partners are left off. Residues count along the entry.
UniProt P62993: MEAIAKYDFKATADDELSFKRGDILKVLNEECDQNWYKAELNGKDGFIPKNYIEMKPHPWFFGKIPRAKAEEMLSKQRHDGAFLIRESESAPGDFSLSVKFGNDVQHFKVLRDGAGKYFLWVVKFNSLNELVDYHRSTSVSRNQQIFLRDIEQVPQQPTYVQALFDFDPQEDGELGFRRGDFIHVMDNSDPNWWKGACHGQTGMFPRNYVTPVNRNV
UniProt P10721, residues 26-976: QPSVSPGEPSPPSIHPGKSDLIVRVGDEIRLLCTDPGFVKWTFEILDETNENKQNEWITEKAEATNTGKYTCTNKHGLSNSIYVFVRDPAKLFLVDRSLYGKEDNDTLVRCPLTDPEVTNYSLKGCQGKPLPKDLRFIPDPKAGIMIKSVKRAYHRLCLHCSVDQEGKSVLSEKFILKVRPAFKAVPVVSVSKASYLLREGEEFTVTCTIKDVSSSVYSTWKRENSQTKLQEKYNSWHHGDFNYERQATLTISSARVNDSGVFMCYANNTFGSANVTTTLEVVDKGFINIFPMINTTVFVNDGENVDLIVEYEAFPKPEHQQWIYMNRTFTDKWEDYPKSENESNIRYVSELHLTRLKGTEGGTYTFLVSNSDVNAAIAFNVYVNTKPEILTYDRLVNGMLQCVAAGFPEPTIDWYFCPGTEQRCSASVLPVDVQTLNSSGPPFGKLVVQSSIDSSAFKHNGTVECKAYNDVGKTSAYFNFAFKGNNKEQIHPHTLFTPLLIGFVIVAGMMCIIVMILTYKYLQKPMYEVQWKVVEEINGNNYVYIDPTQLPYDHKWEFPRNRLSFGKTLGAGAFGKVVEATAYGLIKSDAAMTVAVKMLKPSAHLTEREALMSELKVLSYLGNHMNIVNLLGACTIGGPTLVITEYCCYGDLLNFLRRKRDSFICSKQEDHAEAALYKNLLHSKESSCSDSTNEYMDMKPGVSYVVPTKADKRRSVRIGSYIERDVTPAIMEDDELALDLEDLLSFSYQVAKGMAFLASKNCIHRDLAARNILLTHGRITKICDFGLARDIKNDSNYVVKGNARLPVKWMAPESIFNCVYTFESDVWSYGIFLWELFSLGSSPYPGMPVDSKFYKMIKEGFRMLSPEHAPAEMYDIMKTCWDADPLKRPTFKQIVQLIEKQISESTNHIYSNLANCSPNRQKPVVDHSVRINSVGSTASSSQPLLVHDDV
UniProt P05532, residues 25-979: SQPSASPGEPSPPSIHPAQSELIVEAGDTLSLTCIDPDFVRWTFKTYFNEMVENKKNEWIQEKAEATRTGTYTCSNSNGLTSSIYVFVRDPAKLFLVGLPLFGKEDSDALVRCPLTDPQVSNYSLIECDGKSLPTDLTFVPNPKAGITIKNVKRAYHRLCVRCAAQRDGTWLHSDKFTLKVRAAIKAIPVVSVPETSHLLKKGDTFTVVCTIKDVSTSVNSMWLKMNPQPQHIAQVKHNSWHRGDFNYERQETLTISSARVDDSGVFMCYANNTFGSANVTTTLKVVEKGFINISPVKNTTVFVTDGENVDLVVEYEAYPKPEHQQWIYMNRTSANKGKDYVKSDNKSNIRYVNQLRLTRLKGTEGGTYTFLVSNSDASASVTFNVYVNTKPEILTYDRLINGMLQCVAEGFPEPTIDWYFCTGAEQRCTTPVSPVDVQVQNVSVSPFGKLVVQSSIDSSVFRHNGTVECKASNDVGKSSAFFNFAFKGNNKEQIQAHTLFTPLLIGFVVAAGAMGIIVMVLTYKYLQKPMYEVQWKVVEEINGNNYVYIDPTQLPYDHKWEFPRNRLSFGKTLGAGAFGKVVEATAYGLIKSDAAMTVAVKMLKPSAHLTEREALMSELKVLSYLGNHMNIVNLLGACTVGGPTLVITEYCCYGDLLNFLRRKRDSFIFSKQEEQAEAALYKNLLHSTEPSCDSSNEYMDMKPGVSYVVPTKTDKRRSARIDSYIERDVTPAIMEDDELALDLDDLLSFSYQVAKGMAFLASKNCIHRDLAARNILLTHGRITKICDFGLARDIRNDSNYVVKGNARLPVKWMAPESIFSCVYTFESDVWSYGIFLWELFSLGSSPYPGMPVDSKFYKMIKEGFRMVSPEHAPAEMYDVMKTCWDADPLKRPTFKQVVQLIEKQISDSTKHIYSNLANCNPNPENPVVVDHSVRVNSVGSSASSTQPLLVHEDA

What was measured:
[1] = target: T1, wild-type MCEMP1 with carboxyl-terminal Flag, stably expressed in HMC-1 human mast cells (not stated (human or mouse cDNA cloned)) (UniProt Q8IX19); assay: co-IP; C57 or HMC-1 cells stably expressing MCEMP1-Flag (with or without αFlag for 1 min); lysates immunoprecipitated with anti-Flag antibody; immunoblot
T1 sequence (chain, tyrosine-phosphorylated after αFlag stimulation): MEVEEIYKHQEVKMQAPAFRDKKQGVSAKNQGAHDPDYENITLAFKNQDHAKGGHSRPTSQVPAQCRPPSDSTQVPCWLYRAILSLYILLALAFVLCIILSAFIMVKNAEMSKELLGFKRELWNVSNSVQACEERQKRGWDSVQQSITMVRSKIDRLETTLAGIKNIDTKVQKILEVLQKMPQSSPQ

[2] = target: T2, human MCEMP1 with carboxy-terminal Flag, expressed in 293T cells (human) (UniProt Q8IX19); assay: co-IP; 293T cells transfected; 1% Triton X-100, 50 mM Tris-HCl pH 8.0, 150 mM NaCl; M2 beads or HA beads, 4 °C, 1-2 h; washes with 150~400 mM NaCl; immunoblot
T2 sequence: T1 sequence (chain, tyrosine-phosphorylated after αFlag stimulation)

[3] = target: T3, mouse MCEMP1 with carboxy-terminal Flag, expressed in 293T cells (mouse) (UniProt Q9D8U6); assay: as above
T3 sequence: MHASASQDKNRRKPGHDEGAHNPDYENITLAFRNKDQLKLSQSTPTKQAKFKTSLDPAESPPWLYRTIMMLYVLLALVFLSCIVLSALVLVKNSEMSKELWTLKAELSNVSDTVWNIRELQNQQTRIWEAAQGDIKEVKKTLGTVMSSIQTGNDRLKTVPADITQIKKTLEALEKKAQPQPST

Substance | binding [1] | binding [2] | binding [3]
growth factor receptor-bound protein 2 (Grb2), endogenous, human cells (from UniProt P62993 1-217) | binds |  | 
human KIT with carboxy-terminal HA or V5 epitope, expressed in 293T cells (from UniProt P10721 26-976) (receptor) |  | binds | 
mouse KIT with carboxy-terminal HA or V5 epitope, expressed in 293T cells (from UniProt P05532 25-979) (receptor) |  | binds | binds
